Measured values from patent US6740637B1, “Chlorophyll and bacteriochlorophyll derivatives, their preparation and pharmaceutical compositions comprising them” (priority 1998, dated 2004).
For at least one compound, name, drawing or mass did not settle the structure.

Test system: B. Subtilis
Assay type: cell-based, Bacilus Subtilis
Conditions: 2 h preincubation, light 10 min
Experimental: 1. Preincubation: Bacteria or viruses were preincubated in the absence (untreated control) or presence of increasing concentration of photosensitizer for 1-2 h at room temperature or 37° C. in the dark.
2. Illumination: One set of untreated control and one set of sensitizer treated samples were exposed to light for 5-10 min. An identical group was kept in the dark (dark control).
3. Viability: samples of the controls and experimental groups were subjected for quantitation of survival and viability was calculated as per cent of untreated control.
The light source for illumination was a 250W halogen lamp. The light was focused on a glass support and filtered to eliminate light below 630 nm. The light intensity at the target level was 1500 μEinstein/cm^2. Illumination for Bchl-Ser against S. aureus was performed as described Example 17 herein.
Stocks of bacteria (S. aureus, B. subtilis, E. coli) were preserved on solid LB agar slants at 4° C. Two hours prior to the experiment, bacteria were transferred to liquid LB media and grown at 37° C. with continuous shaking. P. Acnes (ATCC-CR 6919) bacteria were grown on agar 1053 reinforced clostridial medium (Oxoid CM 149 ) and incubated at 37° C. […]
Aliquots (20 or 30 μl) of bacterial suspensions were plated on LB agar plates for 24 h at 37° C. […] Colonies were counted and per cent viability was calculated from untreated control. […]

SMILES: C=Cc1c(C)c2cc3nc(c4c5[n-]c(cc6nc(cc1[n-]2)C(C)=C6CC)c(C)c5C(=O)[C@@H]4C(=O)OC)[C@@H](CCC(=O)OC[C@H](N)C(=O)OC)[C@@H]3C.[Mg+2] [Chla-L-Ser-OMe, L-seryl Methyl Ester Chlorophyllidea]
- half maximal phototoxicity: 1-3×10^−7
